The exact form of at least one protein or probe is not confirmed. At least one verdict rests on a figure or table, not on a statement of the authors.

The values that follow come from paper PMC4499159.

Data set [1] deals with AP endonuclease 1 (APE1) (human) (UniProt P27695). Put plainly: fluorescence titration. As to conditions: FAM-APE1, 10 mM EDTA, slight increase ([…]), EC50 n.d.; 5'-phosphate on downstream primer; 50 mM HEPES pH 8.0, 100 mM NaCl, 4 mM DTT (+10 mM EDTA for APE1); labelled protein from 20 nM; temperature not stated; recombinant protein.
Data set [2] concerns the target PARP1 (human) (UniProt P09874). Put plainly: fluorescence titration. As to conditions: FAM-PARP1, slight increase ([…]), EC50 n.d.; 5'-phosphate on downstream primer; 50 mM HEPES pH 8.0, 100 mM NaCl, 4 mM DTT (+10 mM EDTA for APE1); labelled protein from 20 nM; temperature not stated; recombinant protein; residues 1-1014; protein details: FAM-labelled.

On to “GGCGATTAAGTTGGG / AACGTCAGGGTCTTCC / GGAAGACCCTGACGTTACCCAACTTAATCGCC [gap-DNA]”, for which the binding result in data set [1] and in data set [2] was “binds” each time.

As to “GGCGATTAAGTTGGGT / AACGTCAGGGTCTTCC / GGAAGACCCTGACGTTACCCAACTTAATCGCC [nick-DNA]”, the binding result in data set [2] is reported as “binds”.
